According to paper PMC10906865:
These are yes or no findings as the source states them, for the method shown.

Target: T1, Lysozyme, P61626
T1 chain: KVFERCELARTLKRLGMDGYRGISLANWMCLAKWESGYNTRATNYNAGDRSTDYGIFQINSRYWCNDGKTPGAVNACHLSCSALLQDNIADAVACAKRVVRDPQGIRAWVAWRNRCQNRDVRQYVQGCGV
Assay: differential scanning calorimetry; peak height of the DSC thermogram of the pure protein compared with a DNA hairpin standard curve; ratio of the calorimetric concentration to the UV-Vis or dry-weight concentration read as stoichiometry; 150 mM NaCl, 10 mM potassium phosphate, 15 mM sodium citrate, pH 7.4; heating about 1°C/min; both purified
Conditions: remark: other sources report otherwise

B1: Lysozyme, P61626 19-148 (enzyme)
chain: T1 chain
With B1 as the binder, how does the binding read?
Its binding is “no binding”.
